{
  "source": "patent USRE32393E",
  "about": "“Composition for enhancing the administration of pharmacologically active agents” (KabiVitrum AB, priority 1967, dated 1987)",
  "origin": "cited, not measured here",
  "conditions": "cited from earlier work",
  "note": "Structures can show the parent of a compound that is named as a salt. Where two headings read alike, the source gives them in different places. The name of at least one read-out is uncertain.",
  "data": [
    {"smiles": "CNC1(C)C2CCC(C2)C1(C)C", "note": "(centres unmarked) [Mecamylamine HCl, 3-methylaminoisocamphane hydrochloride]", "values": [
      {"measurement": "intravenous toxicity", "setting": "Corne & Edge (1958)", "value": 12.9, "unit": "mg/kg"},
      {"measurement": "intravenous toxicity", "setting": "Stone et al. (1956)", "value": 21.0, "unit": "mg/kg"}
    ]}
  ]
}
